Structures can show the parent of a compound that is named as a salt. This is one part of the list. Many values rest on one well or one pass, so single values are uncertain.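 Primary human fetal astrocytes engulfed labelled rat cortical synaptosomes, measured as a red/green ratio corrected for calcein live-cell signal and scaled to the plate median. Toxicity meant calcein falling over 30%; decreased phagocytosis meant below 70% of median above 5 µM.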
What was measured:
[1] = system: Human fetal astrocytes; assay: loss of total cells relative to no-compound high-control median (toxicity); higher = more toxic (fewer cells); conditions: 24 h
[2] = system: Human fetal astrocytes; assay: synaptosome phagocytosis (pHrodo/calcein intensity ratio) relative to plate median of data wells; higher = more phagocytosis; conditions: 24 h

SMILES | loss of total cells ([1]; 1.39 µM) | loss of total cells ([1]; 2.78 µM) | loss of total cells ([1]; 5.56 µM) | loss of total cells ([1]; 11.11 µM) | loss of total cells ([1]; 22.22 µM) | synaptosome phagocytosis ([2]; 1.39 µM) | synaptosome phagocytosis ([2]; 2.78 µM) | synaptosome phagocytosis ([2]; 5.56 µM) | synaptosome phagocytosis ([2]; 11.11 µM) | synaptosome phagocytosis ([2]; 22.22 µM)
Cc1ccc(=O)n(-c2ccccc2)c1 [Pirfenidone] | -21.3% | -5.9% | -13.6% | 16.2% | 15% | 92.4% | 72.8% | 114% | 104% | 134%
Cc1cccc(/C=C/c2ccccc2)n1 | -33.2% | -19.5% | -7.9% | -8.8% | -15.6% | 108% | 126% | 127% | 80.9% | 113%
Nc1ccn([C@H]2CC[C@@H](CO)O2)c(=O)n1 [2',3'-dideoxycytidine] | -7.9% | -10.3% | 7.4% | 3.1% | 8% | 112% | 124% | 105% | 75.2% | 77.6%
CCc1cccc2c3c([nH]c12)C(CC)(CC(=O)O)OCC3 (stereo not given) [Etodolac] | 2.9% | 2.6% | 11.5% | -1.3% | -5.6% | 76.6% | 100% | 98% | 112% | 73.2%
Cc1cc2c(cc1Cl)N(C(=O)Nc1cccc3ncccc13)CC2 | -2.4% | -3.2% | -2.3% | 4.8% | 15.9% | 77.2% | 114% | 117% | 94.7% | 112%
COc1ccc(C(=O)NCc2cccnc2)cc1C(=O)NCc1cccnc1 [Picotamide] | -20.8% | -10.5% | -4.5% | -2.7% | -4.1% | 98.2% | 128% | 120% | 106% | 108%
CNCCCC12CCC(c3ccccc31)c1ccccc12 [Maprotiline hydrochloride] | -4.3% | 23.1% | 13.6% | 22.9% | 11.2% | 91.3% | 121% | 123% | 72.3% | 83%
CN(C)S(=O)(=O)c1ccc2c(c1)/C(=C/c1cc3c([nH]1)CCCC3)C(=O)N2 | -27% | -9.9% | -1.7% | 22.6% | -2.5% | 64.1% | 61.2% | 45.2% | 63.4% | 80.2%
CCN(c1nc(N)c(C(=O)NC(=N)N)nc1Cl)C(C)C [5-(N-Ethyl-N-isopropyl)amiloride] | 0.7% | -17.1% | -11.5% | -12.1% | -1.1% | 105% | 93.5% | 115% | 87.2% | 75.2%
CCCCN1CCC(n2c(=O)[nH]c3ccccc32)CC1 [NS 521 oxalate] | -17.5% | -11.3% | -3.3% | -7.6% | 13.1% | 92.1% | 54.7% | 115% | 86.5% | 126%
COc1ccc2[nH]cc(CCNC(C)=O)c2c1 [Melatonin] | -18.5% | -7.7% | -1.4% | -17.1% | 23.4% | 83.6% | 93.8% | 86.3% | 114% | 78.8%

One compound at a time, from the list above. Order of values: loss of total cells ([1]; 1.39 µM) | loss of total cells ([1]; 2.78 µM) | loss of total cells ([1]; 5.56 µM) | loss of total cells ([1]; 11.11 µM) | loss of total cells ([1]; 22.22 µM) | synaptosome phagocytosis ([2]; 1.39 µM) | synaptosome phagocytosis ([2]; 2.78 µM) | synaptosome phagocytosis ([2]; 5.56 µM) | synaptosome phagocytosis ([2]; 11.11 µM) | synaptosome phagocytosis ([2]; 22.22 µM)
Cc1cc2c(cc1Cl)N(C(=O)Nc1cccc3ncccc13)CC2 is listed with -2.4% | -3.2% | -2.3% | 4.8% | 15.9% | 77.2% | 114% | 117% | 94.7% | 112%
CCCCN1CCC(n2c(=O)[nH]c3ccccc32)CC1 [NS 521 oxalate] is listed with -17.5% | -11.3% | -3.3% | -7.6% | 13.1% | 92.1% | 54.7% | 115% | 86.5% | 126%

— the supplement of paper PMC10689618
